Measurements as given in the supplement of paper PMC8551327.
Structures can show the parent of a compound that is named as a salt. Some of the results follow. No stated cut-off is given here; in the data, active = 1.25 or more and inactive = the rest. Repeats are few or missing, and single values can be far off.

system: Kcc2-LUC knock-in mouse primary cortical neurons (Kcc2 promoter reporter); assay: Kcc2 promoter-driven luciferase activity relative to vehicle control (fold of vehicle (ratio)); higher = stronger Kcc2 promoter activation (Kcc2 expression enhancer); conditions: 100 nM; 48 h

Kcc2 promoter-driven luciferase activity, inactive:
COC(=O)C1(C)CCCC2(C)C3=CC(O)C4(C(C)C)OC4C3(O)CCC12 (centres undefined) 1.03
CCC(C(=O)C(C)C(O)C(C)CCc1ccc(C)c(O)c1C(=O)O)C1OC(CC)(C2CCC(O)(CC)C(C)O2)CC1C (centres undefined) [Bovatec R] 1.14
Cc1c2cnccc2c(C)c2c1c1ccccc1n2CCOC(=O)c1ccccc1 [2-(5,11-dimethylpyrido[4,3-b]carbazol-6-yl)ethyl benzoate] 0.49
OC[C@H]1O[C@@H](n2cnc3c(=S)nc[nH]c32)[C@H](O)[C@@H]1O [6-Mercaptopurine ribonucleoside] 0.707
CC(=O)N=C1N(/C=C2\C(=O)Oc3ccccc3C2=O)C(=O)/C(=C/c2ccccc2Cl)N1C 0.46
Cc1ccccc1NC(=O)C(=O)C(c1cnc2ccc([N+](=O)[O-])cc2n1)[N+](=O)[O-] (centres undefined) 0.89
COC(=O)c1ccccc1OCc1cc(=O)oc2ccc(C)cc12 [Methyl 2-[(6-methyl-2-oxochromen-4-yl)methoxy]benzoate] 1.03
O=C(CC1(O)C(=O)Nc2c(Cl)ccc(Cl)c21)c1ccc(Cl)cc1 (centres undefined) 0.93
Cc1ccc2[nH]c(O)c(N=Nc3ccccc3[N+](=O)[O-])c2c1 [5-Methyl-3-[2-(2-nitrophenyl)hydrazinyl]indol-2-one] 0.9
C=C(NC(=O)C(=C)NC(=O)c1csc(C2=N[C@@H]3c4csc(n4)C4NC(=O)c5csc(n5)C([C@](C)(O)[C@@H](C)O)NC(=O)[C@H]5CSC(=N5)/C(=C/C)NC(=O)C(C(C)O)NC(=O)c5csc(n5)C3(CC2)NC(=O)[C@H](C)NC(=O)C(=C)NC(=O)C(=C)NC(=O)C(C(C)C)N[C@@H]2C=Cc3c([C@@H](C)O)cc(nc3[C@H]2O)C(=O)OC4C)n1)C(N)=O (some centres undefined) [siomycin A] 0.93
C=C1CC[C@@H]2[C@](C)(CO)[C@H](O)CC[C@@]2(C)[C@@H]1C/C=C1/C(=O)OC[C@H]1O [Andrographolide] 1.1
COc1ccc(/C(=N/O)C(c2ccc(OC)cc2)C2C(=O)Oc3ccccc32)cc1 (centres undefined) 0.99
CN(C)c1ccc(/C=C/C(=O)[O-])cc1.CN(C)c1ccc(/C=C/C(=O)[O-])cc1.[Cu+2] [p-Dimethylaminocinnamic acid, copper complex] 1.04
O=C(C[n+]1ccc2ccccc2c1)c1ccc2ccc3ccccc3c2c1 [2-isoquinolin-2-ium-2-yl-1-phenanthren-3-ylethanone;iodide] 0.48
Cc1nc(N)nc(N)c1-c1ccc(Cl)c(Cl)c1 1.03
CC(=O)OC1CC(n2cc(F)c(=O)[nH]c2=O)OC1CO (centres undefined) 1.02
COc1ccc2c(c1)CCc1c-2n[nH]c1-c1[nH]nc2c1CCc1cc(OC)ccc1-2 0.48
O=C1NC(c2cccc3ccccc23)Nc2ccccc21 (centres undefined) [2-(naphthalen-1-yl)-2,3-dihydroquinazolin-4(1h)-one] 0.9
Cc1nn(-c2ccccc2)c2c1CC(=O)Nc1ccccc1-2 0.9
Cc1cc(=O)n2c3c(c4c(cc13)c(CN(C)C)cc(=O)n4C)OC2 [Nybomycin Deriv] 1.22
Nc1ccc(OCCCc2c(-c3ccccc3)nc(N)[nH]c2=O)cc1 0.98
CCS(=O)(=O)Nc1ccc(Nc2c3ccccc3nc3ccccc23)c(OC)c1 [Ethanesulfonamide, monomethanesulfonate] 1.1
Cc1ccc(NC(=O)c2cc3ccccc3c(N=Nc3ccccc3O)c2O)c(C)c1 [Magon] 0.668
Cc1cc(=O)c2c(O)c3c(O)cc(O)c4c5c(O)cc(O)c6c(O)c7c(=O)cc(C)c8c1c2c(c34)c(c65)c78 [Hypericin] 0.83
CCC1=C(C[C@H]2NCCc3cc(OC)c(OC)cc32)C[C@H]2c3cc(OC)c(OC)cc3CCN2C1 [Dehydroemetine hydrochloride] 0.67
C=C(CN(C)C)C(=O)c1ccccc1Cl 1.23
COc1cc(O)c(Cc2ccccc2O)c(O)c1C(=O)CCc1ccccc1 [Uvaretin] 1.12
Cc1ccc(C(=O)Nc2ccc(S(=O)(=O)O)c3cc(S(=O)(=O)O)cc(S(=O)(=O)O)c23)cc1NC(=O)c1cccc(NC(=O)Nc2cccc(C(=O)Nc3cc(C(=O)Nc4ccc(S(=O)(=O)O)c5cc(S(=O)(=O)O)cc(S(=O)(=O)O)c45)ccc3C)c2)c1 [Suramin] 0.85
Cn1cnc([N+](=O)[O-])c1Sc1nnnn1-c1ccccc1 [5-(3-Methyl-5-nitroimidazol-4-yl)sulfanyl-1-phenyltetrazole] 1.13
Cc1cc(=O)[nH]c(NN2C(Cl)C(=O)C2c2c(O)ccc3ccccc23)n1 (centres undefined) 0.01
COC(=O)c1[nH]c(=S)[nH]c(=O)c1-c1ccc(Cl)cc1 1.08
CN(C)c1cccc(F)c1C(=O)NC(=O)Nc1ccc(Cl)cc1 [Clanfenur] 0.91
COc1c(O[C@@H]2O[C@H](CO)[C@@H](O)[C@H](O)[C@H]2O)cc2c(c1OC)-c1ccc(OC)c(=O)cc1[C@@H](NC(C)=O)CC2 [Colchicoside] 0.95
CCOC(=O)/N=C(\N)SCc1ccccc1 0.41

As a short view, some entries already given.
Kcc2 promoter-driven luciferase activity, inactive:
Cn1cnc([N+](=O)[O-])c1Sc1nnnn1-c1ccccc1 [5-(3-Methyl-5-nitroimidazol-4-yl)sulfanyl-1-phenyltetrazole] 1.13
Cc1cc(=O)[nH]c(NN2C(Cl)C(=O)C2c2c(O)ccc3ccccc23)n1 (centres undefined) 0.01

Next part:

Kcc2 promoter-driven luciferase activity, active:
CC[C@H](CC[C@@H](C)[C@H]1CC[C@H]2[C@@H]3CC=C4C[C@@H](O)CC[C@]4(C)[C@H]3CC[C@]12C)C(C)C [Beta-Sitosterol] 1.43
C=C1C(=O)OC2C1CC1OC2C(C)CCC/C(C)=C\CCC1(C)O (centres undefined) [Eunicin] 1.33
COc1ccc(O)cc1 [Mequinol] 1.32
Nc1nc(N)c(N=Nc2ccccc2)c(=O)[nH]1 [2,6-Diamino-5-(phenylazo)-4-pyrimidinol] 1.26
N#CC1=C(N)Oc2c(ccc3cccnc23)C1c1ccccc1 (centres undefined) [2-Amino-4-phenyl-4H-pyrano[3,2-h]quinoline-3-carbonitrile] 2.06
